For five molecules, binding results are on record in publication PMC13215057.

Protein sequences, listed by entry. Tags and fused reporters are not part of them. Lines headed by an entry give the natural chain unless they say otherwise; changes in a name come on top.
UniProt Q9R0T4: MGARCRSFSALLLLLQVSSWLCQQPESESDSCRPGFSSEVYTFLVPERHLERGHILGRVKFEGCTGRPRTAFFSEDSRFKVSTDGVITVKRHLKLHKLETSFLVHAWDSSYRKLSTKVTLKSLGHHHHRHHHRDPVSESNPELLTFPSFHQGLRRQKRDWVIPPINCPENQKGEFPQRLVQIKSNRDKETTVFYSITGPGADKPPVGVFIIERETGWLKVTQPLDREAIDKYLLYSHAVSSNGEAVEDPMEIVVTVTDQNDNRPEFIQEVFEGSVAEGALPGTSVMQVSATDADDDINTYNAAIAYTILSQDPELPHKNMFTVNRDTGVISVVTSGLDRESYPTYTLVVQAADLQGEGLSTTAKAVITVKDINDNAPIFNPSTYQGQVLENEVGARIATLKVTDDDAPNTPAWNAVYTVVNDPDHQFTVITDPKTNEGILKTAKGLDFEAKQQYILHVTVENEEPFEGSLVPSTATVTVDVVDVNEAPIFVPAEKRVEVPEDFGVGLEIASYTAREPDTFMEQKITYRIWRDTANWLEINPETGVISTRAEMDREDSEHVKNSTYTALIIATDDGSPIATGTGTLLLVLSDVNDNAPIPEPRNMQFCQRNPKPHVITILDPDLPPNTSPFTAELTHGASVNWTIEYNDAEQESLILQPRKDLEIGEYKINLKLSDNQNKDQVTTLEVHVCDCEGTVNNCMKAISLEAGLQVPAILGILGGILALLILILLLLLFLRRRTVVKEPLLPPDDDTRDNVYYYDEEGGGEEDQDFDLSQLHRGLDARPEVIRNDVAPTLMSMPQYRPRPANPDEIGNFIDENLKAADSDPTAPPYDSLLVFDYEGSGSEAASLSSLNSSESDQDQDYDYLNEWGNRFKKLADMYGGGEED
UniProt Q9Z1Y3: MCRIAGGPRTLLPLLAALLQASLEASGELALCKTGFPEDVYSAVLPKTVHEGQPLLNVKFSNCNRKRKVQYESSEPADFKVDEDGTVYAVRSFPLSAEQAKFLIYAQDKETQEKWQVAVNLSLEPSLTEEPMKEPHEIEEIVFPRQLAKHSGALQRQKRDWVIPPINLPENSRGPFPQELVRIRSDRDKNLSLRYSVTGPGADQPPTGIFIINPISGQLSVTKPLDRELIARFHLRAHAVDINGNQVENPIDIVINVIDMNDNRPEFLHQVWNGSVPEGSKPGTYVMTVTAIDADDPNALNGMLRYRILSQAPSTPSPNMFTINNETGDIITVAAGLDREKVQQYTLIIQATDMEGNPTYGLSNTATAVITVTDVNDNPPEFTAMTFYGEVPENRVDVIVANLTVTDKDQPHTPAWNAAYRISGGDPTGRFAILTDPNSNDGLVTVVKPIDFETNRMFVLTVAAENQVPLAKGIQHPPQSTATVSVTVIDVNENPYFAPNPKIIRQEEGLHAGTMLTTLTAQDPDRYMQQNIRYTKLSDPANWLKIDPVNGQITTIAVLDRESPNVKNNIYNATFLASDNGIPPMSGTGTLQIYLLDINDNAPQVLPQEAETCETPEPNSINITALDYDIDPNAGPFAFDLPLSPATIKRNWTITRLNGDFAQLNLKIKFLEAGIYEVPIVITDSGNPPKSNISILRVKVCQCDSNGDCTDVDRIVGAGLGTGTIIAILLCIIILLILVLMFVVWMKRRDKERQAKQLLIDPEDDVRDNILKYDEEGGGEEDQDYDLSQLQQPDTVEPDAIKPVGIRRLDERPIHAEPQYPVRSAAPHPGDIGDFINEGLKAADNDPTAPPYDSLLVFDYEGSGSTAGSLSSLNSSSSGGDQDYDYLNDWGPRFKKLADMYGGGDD
UniProt A0A0G2JXT9: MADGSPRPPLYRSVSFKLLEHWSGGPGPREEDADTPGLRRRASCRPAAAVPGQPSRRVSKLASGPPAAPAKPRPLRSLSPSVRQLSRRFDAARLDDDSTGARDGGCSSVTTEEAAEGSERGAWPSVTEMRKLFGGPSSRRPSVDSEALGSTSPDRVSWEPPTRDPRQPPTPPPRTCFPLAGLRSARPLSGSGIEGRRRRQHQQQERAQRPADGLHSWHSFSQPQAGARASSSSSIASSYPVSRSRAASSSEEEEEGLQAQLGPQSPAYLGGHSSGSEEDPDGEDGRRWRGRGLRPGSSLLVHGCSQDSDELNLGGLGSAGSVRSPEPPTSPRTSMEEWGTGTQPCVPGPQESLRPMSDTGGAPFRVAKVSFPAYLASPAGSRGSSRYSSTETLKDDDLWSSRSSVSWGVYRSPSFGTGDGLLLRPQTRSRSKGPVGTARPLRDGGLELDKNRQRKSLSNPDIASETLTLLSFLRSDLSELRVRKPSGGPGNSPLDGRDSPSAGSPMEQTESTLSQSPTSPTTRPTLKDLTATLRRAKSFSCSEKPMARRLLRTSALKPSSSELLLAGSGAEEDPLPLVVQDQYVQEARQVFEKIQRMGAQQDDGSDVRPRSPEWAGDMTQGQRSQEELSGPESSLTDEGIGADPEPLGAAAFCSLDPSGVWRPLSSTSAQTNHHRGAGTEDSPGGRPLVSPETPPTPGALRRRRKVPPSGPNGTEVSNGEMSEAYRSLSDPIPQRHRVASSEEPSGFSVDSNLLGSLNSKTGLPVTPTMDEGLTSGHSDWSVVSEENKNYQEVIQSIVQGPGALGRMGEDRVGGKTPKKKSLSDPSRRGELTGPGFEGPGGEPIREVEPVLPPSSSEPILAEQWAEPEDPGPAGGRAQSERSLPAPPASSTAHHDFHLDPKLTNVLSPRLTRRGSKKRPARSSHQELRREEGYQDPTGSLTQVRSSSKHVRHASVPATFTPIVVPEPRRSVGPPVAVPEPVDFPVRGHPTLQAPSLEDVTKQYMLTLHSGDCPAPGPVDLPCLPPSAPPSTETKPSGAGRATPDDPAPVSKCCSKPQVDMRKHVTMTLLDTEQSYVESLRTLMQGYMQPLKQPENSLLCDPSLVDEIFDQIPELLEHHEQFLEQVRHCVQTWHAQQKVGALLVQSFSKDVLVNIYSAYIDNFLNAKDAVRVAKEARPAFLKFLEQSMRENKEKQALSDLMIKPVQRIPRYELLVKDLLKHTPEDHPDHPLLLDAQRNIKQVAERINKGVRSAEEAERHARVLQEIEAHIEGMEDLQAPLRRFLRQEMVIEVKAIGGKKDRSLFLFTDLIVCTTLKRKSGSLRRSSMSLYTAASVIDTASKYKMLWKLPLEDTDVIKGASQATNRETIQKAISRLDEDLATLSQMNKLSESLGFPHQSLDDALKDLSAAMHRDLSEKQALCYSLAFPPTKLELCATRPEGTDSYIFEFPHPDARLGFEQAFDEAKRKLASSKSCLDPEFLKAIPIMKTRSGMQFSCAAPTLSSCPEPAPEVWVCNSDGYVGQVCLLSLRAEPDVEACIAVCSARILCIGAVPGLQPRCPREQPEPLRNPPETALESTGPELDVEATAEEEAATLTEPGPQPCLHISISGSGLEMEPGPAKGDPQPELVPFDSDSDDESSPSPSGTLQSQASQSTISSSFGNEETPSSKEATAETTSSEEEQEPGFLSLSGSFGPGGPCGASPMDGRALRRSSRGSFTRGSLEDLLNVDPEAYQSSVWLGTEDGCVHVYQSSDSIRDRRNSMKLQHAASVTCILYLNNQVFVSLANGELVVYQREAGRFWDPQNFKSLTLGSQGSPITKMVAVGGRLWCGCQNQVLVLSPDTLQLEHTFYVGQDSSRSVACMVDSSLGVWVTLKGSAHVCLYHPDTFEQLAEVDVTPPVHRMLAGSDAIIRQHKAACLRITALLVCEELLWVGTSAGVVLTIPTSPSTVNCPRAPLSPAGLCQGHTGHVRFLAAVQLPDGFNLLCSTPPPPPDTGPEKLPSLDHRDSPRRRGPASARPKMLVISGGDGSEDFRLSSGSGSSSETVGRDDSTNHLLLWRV
UniProt Q9WU82: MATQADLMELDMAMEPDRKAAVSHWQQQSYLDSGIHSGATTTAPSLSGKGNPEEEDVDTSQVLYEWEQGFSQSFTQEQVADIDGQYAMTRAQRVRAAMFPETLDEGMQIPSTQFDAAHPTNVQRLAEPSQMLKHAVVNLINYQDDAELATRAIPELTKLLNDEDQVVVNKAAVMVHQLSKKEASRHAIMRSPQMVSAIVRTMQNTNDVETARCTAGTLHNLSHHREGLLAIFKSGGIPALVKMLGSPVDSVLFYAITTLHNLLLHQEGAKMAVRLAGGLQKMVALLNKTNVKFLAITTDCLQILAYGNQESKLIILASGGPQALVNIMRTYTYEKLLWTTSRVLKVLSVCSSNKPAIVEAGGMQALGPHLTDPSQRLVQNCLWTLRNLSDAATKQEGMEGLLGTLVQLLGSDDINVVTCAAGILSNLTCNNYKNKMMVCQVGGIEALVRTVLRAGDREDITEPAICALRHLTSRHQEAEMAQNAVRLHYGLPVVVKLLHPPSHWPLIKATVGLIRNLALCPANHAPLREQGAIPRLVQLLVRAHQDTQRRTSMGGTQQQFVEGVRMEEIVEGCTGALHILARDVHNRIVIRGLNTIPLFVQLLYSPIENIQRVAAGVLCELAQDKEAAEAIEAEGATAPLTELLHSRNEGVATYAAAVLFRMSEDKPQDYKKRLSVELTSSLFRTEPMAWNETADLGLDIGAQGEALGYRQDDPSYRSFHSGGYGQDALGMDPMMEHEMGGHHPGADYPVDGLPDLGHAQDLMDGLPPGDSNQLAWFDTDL
UniProt Q62868: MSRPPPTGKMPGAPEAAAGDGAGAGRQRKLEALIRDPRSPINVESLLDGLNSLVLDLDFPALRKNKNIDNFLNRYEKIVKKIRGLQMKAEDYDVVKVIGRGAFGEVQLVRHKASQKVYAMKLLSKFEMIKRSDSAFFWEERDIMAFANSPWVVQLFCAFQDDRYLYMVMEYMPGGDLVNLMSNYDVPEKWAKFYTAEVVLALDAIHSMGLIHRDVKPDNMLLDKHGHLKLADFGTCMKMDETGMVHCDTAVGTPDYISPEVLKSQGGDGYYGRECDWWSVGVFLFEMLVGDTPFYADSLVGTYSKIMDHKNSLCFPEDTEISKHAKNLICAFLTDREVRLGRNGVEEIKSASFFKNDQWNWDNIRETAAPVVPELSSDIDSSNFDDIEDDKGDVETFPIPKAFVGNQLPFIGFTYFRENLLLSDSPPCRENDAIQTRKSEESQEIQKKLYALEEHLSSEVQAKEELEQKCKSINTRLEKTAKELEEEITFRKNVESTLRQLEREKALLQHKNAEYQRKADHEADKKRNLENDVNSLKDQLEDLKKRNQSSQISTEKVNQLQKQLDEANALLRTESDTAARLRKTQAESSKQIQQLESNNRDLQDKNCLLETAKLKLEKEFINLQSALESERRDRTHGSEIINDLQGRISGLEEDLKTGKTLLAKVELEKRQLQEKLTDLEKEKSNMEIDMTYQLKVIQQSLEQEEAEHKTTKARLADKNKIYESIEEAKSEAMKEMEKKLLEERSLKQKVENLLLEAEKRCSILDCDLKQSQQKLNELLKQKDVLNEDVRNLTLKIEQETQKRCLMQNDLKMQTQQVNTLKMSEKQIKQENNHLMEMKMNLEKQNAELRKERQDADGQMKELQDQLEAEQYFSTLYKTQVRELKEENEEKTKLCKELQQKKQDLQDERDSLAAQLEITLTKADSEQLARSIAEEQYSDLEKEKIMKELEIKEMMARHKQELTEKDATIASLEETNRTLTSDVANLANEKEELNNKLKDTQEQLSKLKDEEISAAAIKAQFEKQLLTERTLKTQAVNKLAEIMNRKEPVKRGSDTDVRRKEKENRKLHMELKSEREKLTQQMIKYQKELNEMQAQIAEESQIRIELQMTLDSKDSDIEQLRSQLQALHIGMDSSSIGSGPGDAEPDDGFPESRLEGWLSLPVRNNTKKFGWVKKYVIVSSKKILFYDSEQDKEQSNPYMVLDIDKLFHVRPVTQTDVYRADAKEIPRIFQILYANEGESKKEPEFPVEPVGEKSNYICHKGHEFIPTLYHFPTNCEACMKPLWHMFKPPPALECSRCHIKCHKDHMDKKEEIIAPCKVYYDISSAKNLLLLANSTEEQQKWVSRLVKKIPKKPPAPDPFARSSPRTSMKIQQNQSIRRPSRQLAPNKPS

No constants are given. Whether binding was seen depends on the method and setting. Binding seen in cells or lysates may run through a third protein. These calls come from enrichment with a bait or labelling near it, and not all partners need be listed.

The target in experiment [1] is TurboID-tagged E-cadherin (rat) (UniProt Q9R0T4). Description: proximity labelling; BioID: Can 10 cells expressing TurboID-tagged E- or N-cadherin, 50 µM biotin 16 h at 37°C, RIPA lysate, streptavidin magnetic beads, LC-MS/MS; controls biotin(−) and untransfected cells.
Experiment [2] has as its target TurboID-tagged N-cadherin (rat) (UniProt Q9Z1Y3). The experiment is described as above.

Take “ARHGEF17 (endogenous, Can 10 cells) (from UniProt A0A0G2JXT9)”: the binding entry in experiment [1] was “binds”.
As to “β-catenin (endogenous, Can 10 cells) (from UniProt Q9WU82 1-781)”, the binding entry in experiment [2] is “binds”.
For the molecule “ROCK2 (endogenous, Can 10 cells) (from UniProt Q62868 1-1388) (enzyme)”, the binding entry in experiment [1] is listed as “binds”.

B1: lipoma preferred partner (endogenous, Can 10 cells) (protein, UniProt Q5XI07 1-632)
chain: MSHPSWLPPRSTGEPLGHVPARMETTHSFGTPSISVSTQQPPKKFAPVVAPKPKYNPYKQPGGEGDFLPPPPPPLEDPGTIPSGSGHFPPPPPLDEGAFIVQRGNPGGKTLEERRSSLDAEIDSLTSILADLECSSPYKPRAPPGSSSSIASPPVSTPVTGHKRMVIPQQPPLTATKKSATKPQAIPIPVTPIGTLKPQPQPVPASYSTASTSSRPAFNVQVKSAQPSTHYMTGSSSGQMYGPGSRSYNTQQVPLSAQCPPPTTCAGTDYAYIPPSGQQAESGFGYTSNQGRYFEPFFAACPSYGGRNEADPAYGQQVQPNTWKREPGYAAPGAGNQNQPGMYSVSGPKKTYITDPVSAPCAPPVQPKERLVKNQKVLQNVVDDRVHGLRKSGFPAPMGPPSVPPSFRPEDELEHLTKKMLYDMENPPADDYFGRCARCGENVVGEGTGCTAMDQVFHVDCFTCMVCDIKLRGQPFYAVEKKAYCEPCYINTLEQCSVCSKPIMERILRATGKAYHPHCFTCVMCHRSLDGIPFTVDACGLIHCIEDFHKKFAPRCSVCKEPIMPAPGQEETVRIVALDRDFHVHCYRCEDCGGLLSEGDNQGCYPLDGHILCKSCNSARIRVLTAKASTDL
Regarding B1, the binding entry in experiment [2] and in experiment [1] was “binds” in each case.

B2: p190A/ARHGAP35 (endogenous, Can 10 cells) (protein, UniProt P81128 1-1499)
chain: MMMARKQDVRIPTYNISVVGLSGTEKEKGQCGIGKSCLCNRFVRPSADEFHLDHTSVLSTSDFGGRVVNNDHFLYWGEVSRSLEDCVECKMHIVEQTEFIDDQTFQPHRSTALQPYIKRAAATKLASAEKLMYFCTDQLGLEQDFEQKQMPDGKLLVDGFLLGIDVSRGMNRNFDDQLKFVSNLYNQLAKTKKPIVIVLTKCDEGVERYIRDAHTFALSKKNLQVVETSARSNVNVDLAFSTLVQLIDKSRGKTKIIPYFEALKQQSQQIATAKDKYEWLVSRIVKSHNENWLSVSRKMQASPEYQDYVYLEGTQKAKKLFLQHIHRLKHEHIERRRKLYLAALPLAFEALIPNLDEVDHLSCIKAKKLLETKPEFLKWFVVLEETPWDETSHIDNMENERIPFDLMDTVPAEQLYETHLEKLRNERKRAEMRRAFKENLETSPFITPGKPWEEARSFIMNEDFYQWLEESVYMDIYGKHQKQIIDRAKEEFQELLLEYSELFYELELDAKPSKEKMGVIQDVLGEEQRFKALQKLQAERDALILKHIHFVYHPTKETCPSCPACVDAKIEHLISSRFIRPSDRNQKNSLSDPNIDRINLVILGKDGLARELANEIRALCTNDDKYVIDGKMYELSLRPIEGNVRLPVNSFQTPTFQPHGCLCLYNSKESLSYVVESIEKSRESTLGRRDNHLVHLPLTLILVNKRGDTSGETLHSLIQQGQQIASKLQCVFLDPASAGIGYGRNINEKQISQVLKGLLDSKRNLNLVSSTASIKDLADVDLRIVMCLMCGDPFSADDILSPVLQSQTCKSSHCGSSNSVLLELPIGVHKKRIELSVLSYHSSFSIRKSRLVHGYIVFYSAKRKASLAMLRAFLCEVQDIIPIQLVALTDGAIDVLDNDLSREQLTEGEEIAQEIDGRFTSIPCSQPQHKLELFHPFFKDVVEKKNIIEATHMYDNVAEACSTTEEVFNSPRAGSPLCNSNLQDSEEDVEPPSYHLFREDATLPSLSKDHSKFSMELEGNDGLSFIMSNFESKLNNKVPPPVKPKPPVHFEITKDLSYLDQGHREGQRKSMSSSPWMPQDGFDPSDYAEPMDAVVKPRNEEENIYSVPHDSTQGKIITIRNINKAQSNGSGNGSDSEMDTSSLERGRKVSAVSKPVLYRTRCTRLGRFASYRTSFSVGSDDELGPIRKKEEDQASQGYKGDNAVIPYETDEDPRRRNILRSLRRNTKKPKPKPRPSITKATWESNYFGVPLTTVVTPEKPIPIFIERCIEYIEATGLSTEGIYRVSGNKSEMESLQRQFDQDHNLDLAEKDFTVNTVAGAMKSFFSELPDPLVPYSMQIDLVEAHKINDREQKLHALKEVLKKFPKENHEVFKYVISHLNRVSHNNKVNLMTSENLSICFWPTLMRPDFSSMDALTATRSYQTIIELFIQQCPFFFYNRPISEPPGAAPGSPSAMAPTVPFLTSTPATSQPSPPQSPPPTPQSPMQPLLSSQLQAEHTL
Turning to B2, in experiment [2], the binding result is given as “binds”.
